The data set can be described thus: Sugammadex sodium protein residue detection test (Coomassie Brilliant Blue G-250 method). Particulars: crude spiked with 0.1% cyclodextrin glucosyltransferase before recrystallization; 1 g sample in 10 ml water, 595 nm. The procedure:
Sugammadex Sodium Protein Residue Detection Test (Coomassie Brilliant Blue G-250 Method): 0, 6, 12, 24, 36, 48 and 60 μl of standard protein solution were respectively added to test tubes, 3 ml of Coomassie Brilliant Blue G-250 staining solution was added, uniform mixing was performed, heat preservation was performed at room temperature for 15 min, colorimetric determination was performed at wavelength of 595 nm. and a standard curve was drawn. 1 g of sugammadex sodium sample to be tested was taken and dissolved in 8 ml of water for injection, heating was performed for dissolution, the pH value was regulated, water for injection was added to fix the volume to 10 ml, the above liquid was enabled to pass through a 0.22 μm filter membrane, and then a sample solution to be tested was prepared. 60 μl of the solution was taken and the above determination was performed to obtain the concentration thereof.

In the case of `O=C([O-])CCSC[C@H]1O[C@@H]2OC3[C@@H](CSCCC(=O)[O-])O[C@H](OC4[C@@H](CSCCC(=O)[O-])O[C@H](OC5[C@@H](CSCCC(=O)[O-])O[C@H](OC6[C@@H](CSCCC(=O)[O-])O[C@H](OC7[C@@H](CSCCC(=O)[O-])O[C@H](OC8[C@@H](CSCCC(=O)[O-])O[C@H](OC9[C@@H](CSCCC(=O)[O-])O[C@H](OC1[C@H](O)[C@H]2O)[C@H](O)[C@H]9O)[C@H](O)[C@H]8O)[C@H](O)[C@H]7O)[C@H](O)[C@H]6O)[C@H](O)[C@H]5O)[C@H](O)[C@H]4O)[C@H](O)[C@H]3O.[Na+].[Na+].[Na+].[Na+].[Na+].[Na+].[Na+].[Na+]` [Comparative Embodiment 2, sugammadex sodium], the “Content of protein (protein residue)” value came out at 0.06 µg/mL. In the case of `O=C([O-])CCSC[C@H]1O[C@@H]2OC3[C@@H](CSCCC(=O)[O-])O[C@H](OC4[C@@H](CSCCC(=O)[O-])O[C@H](OC5[C@@H](CSCCC(=O)[O-])O[C@H](OC6[C@@H](CSCCC(=O)[O-])O[C@H](OC7[C@@H](CSCCC(=O)[O-])O[C@H](OC8[C@@H](CSCCC(=O)[O-])O[C@H](OC9[C@@H](CSCCC(=O)[O-])O[C@H](OC1[C@H](O)[C@H]2O)[C@H](O)[C@H]9O)[C@H](O)[C@H]8O)[C@H](O)[C@H]7O)[C@H](O)[C@H]6O)[C@H](O)[C@H]5O)[C@H](O)[C@H]4O)[C@H](O)[C@H]3O.[Na+].[Na+].[Na+].[Na+].[Na+].[Na+].[Na+].[Na+]` [Embodiment 11, sugammadex sodium], the “Content of protein (protein residue)” value is listed as “no protein residue was detected”.

(Values after US11306158B1, “Method for preparing high-purity sugammadex sodium” (HEFEI BOSIKC PHARMTECH CO., LTD., priority 2019, dated 2022).)
